# Primary screen of a compound library

From ChEMBL document CHEMBL3988442, “University of Dundee, Small-Polar-MMV Screening Library” (2021).

Each number is a percent effect as filed. The controls that fix the scale are not given in the record; negative values are as filed. This is an unselected part of the compounds tested. Two or more numbers in one place are separate tests of the same structure; such repeats can differ widely.

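Viability assay of Plasmodium falciparum sporozoites; the read-out is not stated. The concentration is filed as 10 mM, unlikely as a test dose, so the dose is not known. Direction is inferred from retests: higher values go with lower viability. Strong results were mostly tested again. Size under these conditions: about 34,000 compounds, about 280 of them at 50% or above in at least one test.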

Result for CCN1CCN(C(=O)NCc2cc[nH]n2)CC1 was 7.355%. Result for O=C(O)C(F)(F)F.O=C(O)C(F)(F)F.O=C(O)C(F)(F)F.[H][C@@]12CCN(Cc3ccccn3)C[C@]1(C(=O)NCc1ccccn1)CCO2 was 16.13%. For [H][C@]12C[C@@H](C(=O)NCCOC)CO[C@@]1([H])CCN(Cc1cccs1)C2 the result was -1.864%. With COc1c(F)ccc(C(=O)N2CC[C@H](CO)[C@@H](O)C2)c1F the screen gave -9.813%.

CCn1ccnc1CN1CCN(CCOc2ccccc2OC)CC1 read 1.979%. c1ccc(CCCN2CCCC2Cn2cncn2)cc1 (centres unmarked) gave 3.038% and -0.4101% and 8.592%. Result for CN(Cc1ccc(F)cc1)C(=O)CN1CCOC(Cn2cccn2)C1 (centres unmarked) was -0.9453%. For Clc1ccc2cccnc2c1CNC1CCc2ncnn2C1 (centres unmarked) the result was -3.547%.

CCN(Cc1ccc2c(c1)OCCO2)C(=O)Cn1cccnc1=O gave 8.676%. With [H][C@@]12COC[C@]1([H])[C@@H](OCC1CCN(C)CC1)CN2C(=O)c1cccn1C the screen gave -7.24%. With Cc1cccc(OCCNC(=O)CN2CCCC2Cn2cccn2)c1 (centres unmarked) the screen gave -10.68%. Result for Cn1c(C(=O)Nc2nc[nH]n2)cc2ccccc21 was -8.265%.

With [H][C@@]12CCN(C(=O)COc3ccccc3)[C@]1([H])CC(=O)N2CCOC the screen gave -7.271%. With O=C(O)C(F)(F)F.[H][C@@]12CN(C(=O)c3ccc(C)nc3)C[C@]1([H])OCCN2CCN1CCCC1 the screen gave -17.14%. Result for CCc1cnc(N)nc1NCCN1CCCCC1 was 5.889%. With O=C(O)C(F)(F)F.O=C(O)C(F)(F)F.[H][C@@]12CCN(Cc3cccs3)C[C@@]1([H])O[C@H](C(=O)Nc1cccnc1C)C2 the screen gave 10.77%.

CN(C)CC(=O)N1CCCC2(CCN(c3ccccc3)C2=O)C1.O=C(O)C(F)(F)F (centres unmarked) gave 13.05%. Result for CN(Cc1ccc(F)cc1)C(=O)CN1CCCC(Cn2cncn2)C1 (centres unmarked) was -8.141%. With Cc1nnc(NC(=O)NCc2ccc(OC3CCCC3)nc2)s1 the screen gave -5.08%. CCc1cc(N2CCC(Nc3ccc4nnc(C)n4n3)CC2)ncn1 gave -13.33%.

Cn1c(=O)c2cc(C(=O)NCCc3ccccc3)ccc2n(C)c1=O read 9.091%. With Cc1nc(C)c(CNC(=O)N2CCN(c3ccc(Cl)cn3)CC2)s1 the screen gave -0.6519%. Result for CCCc1n[nH]c(C2CN(Cc3nnc(C4CCC4)o3)CCO2)n1 (centres unmarked) was 10.48%. Result for Cc1nc(Nc2ncccn2)cc(C2CCCN2C2CCOCC2)n1 (centres unmarked) was -4.384%.

Result for CCNC(=O)Cc1ccc(-c2cccc3c2CCNC3)cc1 was -0.09158%. CC(C)CC(=O)N1CC(=O)c2sc(Nc3ccc(F)cc3)nc2C1 gave 10.92%. CC1CCc2nn(CCNC(=O)c3cccs3)c(=O)cc2C1 (centres unmarked) read 37.94% and 7.685% and -6.13%. With Cn1cc(CN2CCC3(CCCN3S(C)(=O)=O)CC2)cn1 the screen gave 6.6%.

For COCCC(=O)N1CCCC(c2n[nH]cc2C)C1 (centres unmarked) the result was -1.614%. Result for CCCn1nc(C2CCNCC2)n(Cc2ccccc2)c1=O was -16.82%. Result for Fc1cccc(CN2CCOCC3(CCN(C4CCOCC4)C3)C2)c1.O=C(O)C(F)(F)F.O=C(O)C(F)(F)F (centres unmarked) was 4.623%. CCOC1CCN(C(=O)CN(C)c2cnccn2)CC1 gave -21.54%.

Result for CCOc1cccc(CNC(=O)NCC(O)c2cccc(F)c2)c1 (centres unmarked) was 6.72%. Cc1csc(C2CCCN(C(=O)c3cc(Cl)c[nH]3)C2)n1 (centres unmarked) gave -4.64%. Cn1ccc(CN2CCCC2c2ccc3c(c2)OCCCO3)cc1=O (centres unmarked) read 11.59%. Cc1ccc(CN2CCCn3c(nc(Cn4ccnc4)cc3=O)C2)s1 read -23.14%.

c1ncn(CC2CCCN(Cc3csc(-c4ccsc4)n3)C2)n1 (centres unmarked) gave 4.314%. OC1(CN2CCC(Cc3ncccn3)CC2)CCCCC1 read 5.566%. For CN(Cc1cccs1)C(=O)CN1CCOC(Cn2cncn2)C1 (centres unmarked) the result was -4.141%. For COCCn1cc(C(=O)N2CCCC2c2cc(C)no2)ccc1=O (centres unmarked) the result was -1.765%.

Cn1ncc(C2CC(=O)NCc3nc4ccccn4c32)c1C1CC1 (centres unmarked) read -2.977%. With O=C(O)C(F)(F)F.[H][C@]12CCN(C(=O)c3ccoc3)[C@@]1([H])CC[C@H](COCCN(C)C)O2 the screen gave -14.86%. CCOc1cccc2c1OCC(C(=O)NS(=O)(=O)Cc1ccccc1)=C2 read -16.16%. O=C(NCCc1cccc(F)c1)c1nc2c(s1)CCCN2C(=O)C1CC1 read 2.452%.

Cc1cc(C)n(-c2ccc(CNCc3ccc(F)c(F)c3)cn2)n1 read 4.204%. With Cc1cc(N2CCCC2c2nccnc2C)ncn1 (centres unmarked) the screen gave 20.41%.

Once more, the final 4:

SMILES	percent effect
CCOc1cccc2c1OCC(C(=O)NS(=O)(=O)Cc1ccccc1)=C2	-16.16
O=C(NCCc1cccc(F)c1)c1nc2c(s1)CCCN2C(=O)C1CC1	2.452
Cc1cc(C)n(-c2ccc(CNCc3ccc(F)c(F)c3)cn2)n1	4.204
Cc1cc(N2CCCC2c2nccnc2C)ncn1 (centres unmarked)	20.41